In publication PMC9192689:
Results are given in words; binding and its absence hold for the method and conditions named. Binding seen in cells or lysates may run through a third protein. Some binding calls cover weakened binding; strength is not graded here.

Amino acid sequences for entries named in this document (tags omitted).
UniProt Q13148: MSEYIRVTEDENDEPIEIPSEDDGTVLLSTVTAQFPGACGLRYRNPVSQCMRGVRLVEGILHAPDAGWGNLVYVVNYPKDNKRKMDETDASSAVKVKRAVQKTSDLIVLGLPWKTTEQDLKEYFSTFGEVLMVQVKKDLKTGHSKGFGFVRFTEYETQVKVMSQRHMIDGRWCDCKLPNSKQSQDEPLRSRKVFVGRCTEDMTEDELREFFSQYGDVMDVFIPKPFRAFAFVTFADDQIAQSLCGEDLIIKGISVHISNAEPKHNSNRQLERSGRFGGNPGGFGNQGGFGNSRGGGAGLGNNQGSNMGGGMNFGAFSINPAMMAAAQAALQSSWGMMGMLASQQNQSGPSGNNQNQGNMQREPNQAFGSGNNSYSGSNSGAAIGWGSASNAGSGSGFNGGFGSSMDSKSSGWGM
UniProt P37198: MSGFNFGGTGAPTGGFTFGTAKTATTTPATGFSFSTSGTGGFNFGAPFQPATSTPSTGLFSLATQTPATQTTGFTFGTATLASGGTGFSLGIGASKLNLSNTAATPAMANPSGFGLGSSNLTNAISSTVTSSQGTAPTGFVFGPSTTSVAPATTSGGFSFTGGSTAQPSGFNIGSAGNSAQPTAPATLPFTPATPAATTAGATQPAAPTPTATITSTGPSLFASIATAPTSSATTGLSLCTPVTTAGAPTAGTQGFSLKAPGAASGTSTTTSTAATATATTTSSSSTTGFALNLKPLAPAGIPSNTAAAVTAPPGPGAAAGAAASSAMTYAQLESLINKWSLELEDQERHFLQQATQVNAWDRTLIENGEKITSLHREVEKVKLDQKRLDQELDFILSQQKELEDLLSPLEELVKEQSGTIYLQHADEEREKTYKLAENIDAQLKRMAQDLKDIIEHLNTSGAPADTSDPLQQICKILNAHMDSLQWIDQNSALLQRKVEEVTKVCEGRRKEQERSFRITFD

Molecular target: eGFP-TDP-43 (wild type) (UniProt Q13148)
Assay: co-IP; HEK293 cells co-transfected with mRuby-NUP62 and eGFP-TDP-43 (WT or ΔNLS) for 24 h; lysate incubated with GFP-Trap Magnetic Agarose beads 3 h at 4 °C; washed three times in 10 mM Tris/Cl pH 7.5, 150 mM NaCl, 0.5 mM EDTA; immunoblot for NUP62 and TDP-43

binding: binds
Substance: mRuby-NUP62 (from UniProt P37198 1-522)
